Experimental data: patent publication US11542304B2, “Multimeric bicyclic peptide ligands” (BicycleTx Limited, priority 2018, dated 2023)
Part of at least one peptide drawing is inferred or uncertain, most often the ends. Starred links: 1 amine or outer side, 2 acyl side, 3 side chain; linkers in the order of their positions; H or OH if unused. Positions of bridges follow the written chain, without caps; N, C: chain ends. Non-standard residues stand in square brackets, D forms with d. Residues, ends and D or L forms follow the SMILES beside them. *: point of attachment. TATA = O=C(CC[*:1])N1CN(C(=O)CC[*:2])CN(C(=O)CC[*:3])C1; Nle = CCCC[C@H](N)C(=O)O; Pent4ynoyl = C#CCCC(=O)*

Amino acid sequences for entries named in this document (tags omitted). Residues count along the entry.
UniProt Q07011, 24-255: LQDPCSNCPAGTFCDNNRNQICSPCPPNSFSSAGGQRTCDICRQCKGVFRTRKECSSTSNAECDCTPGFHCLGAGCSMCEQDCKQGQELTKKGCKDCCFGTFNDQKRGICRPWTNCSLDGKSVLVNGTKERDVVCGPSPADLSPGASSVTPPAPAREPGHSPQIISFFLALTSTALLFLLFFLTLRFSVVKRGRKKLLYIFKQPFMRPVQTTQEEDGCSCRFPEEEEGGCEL

Legend:
CD137 [1] = biological target: T1, CD137 (Homo sapiens, UniProt Q07011); assay: CD137 Biacore assay with monomeric peptides; format: binding; set-up: purchased R&D systems; details: cells printed as NB
CD137 [2] = biological target: T1, CD137; assay: CD137 Promega reporter cell activity assay (NF-κB luciferase in Jurkat cells); details: FIGS. 1 to 3 and 15

Structure (SMILES)	Kd (CD137 [1]) [µM]	CD137 agonism / activation in reporter cells (in words) (CD137 [2])
C#CCCC(=O)N[C@@H](C)C(=O)N[C@H]1CSCCC(=O)N2CN3CN(C2)C(=O)CCSC[C@H](NC(=O)[C@H](Cc2ccc(O)cc2)NC(=O)[C@H](CCC(N)=O)NC(=O)CNC(=O)[C@H](CCC(=O)O)NC(=O)[C@H](CCC(=O)O)NC(=O)[C@H]([C@@H](C)CC)NC1=O)C(=O)N[C@@H](Cc1ccccc1)C(=O)N[C@H](C)C(=O)N[C@@H](CC(=O)O)C(=O)N1CCC[C@H]1C(=O)N[C@@H](Cc1ccc(O)cc1)C(=O)N[C@@H](CCCC)C(=O)N[C@H](C(=O)N[C@@H](C)C(N)=O)CSCCC3=O [BCY8935, (PYA)-A-CiIEEGQYCiiF[D-A]DPY[Nle]Ciii-A]	> 5	–
C#CCCC(=O)NCCCC[C@@H]1NC(=O)[C@H](CCC(=O)O)NC(=O)[C@H]([C@@H](C)CC)NC(=O)[C@@H](NC(=O)[C@H](C)NC(C)=O)CSCCC(=O)N2CN3CN(C2)C(=O)CCSC[C@H](NC(=O)[C@H](Cc2ccc(O)cc2)NC(=O)[C@H](CCC(N)=O)NC(=O)CNC1=O)C(=O)N[C@@H](Cc1ccccc1)C(=O)N[C@H](C)C(=O)N[C@@H](CC(=O)O)C(=O)N1CCC[C@H]1C(=O)N[C@@H](Cc1ccc(O)cc1)C(=O)N[C@@H](CCCC)C(=O)N[C@H](C(=O)N[C@@H](C)C(N)=O)CSCCC3=O [BCY8926, Ac-A-CiIE[K(PYA)]GQYCiiF[D-A]DPY[Nle]Ciii-A] (Ac-ACIEK(Pent4ynoyl)GQYCF[dA]DPY[Nle]CA-NH2; linker 2-9-16 via TATA)	> 5	–
C#CCCC(=O)NCCCC[C@H]1NC(=O)[C@H](CCC(=O)O)NC(=O)[C@H]([C@@H](C)CC)NC(=O)[C@@H](NC(=O)[C@H](C)NC(C)=O)CSCCC(=O)N2CN3CN(C2)C(=O)CCSC[C@H](NC(=O)[C@H](Cc2ccc(O)cc2)NC(=O)[C@H](CCC(N)=O)NC(=O)CNC1=O)C(=O)N[C@@H](Cc1ccccc1)C(=O)N[C@H](C)C(=O)N[C@@H](CC(=O)O)C(=O)N1CCC[C@H]1C(=O)N[C@@H](Cc1ccc(O)cc1)C(=O)N[C@@H](CCCC)C(=O)N[C@H](C(=O)N[C@@H](C)C(N)=O)CSCCC3=O [BCY8925, Ac-A-CiIE[D-K(PYA)]GQYCiiF[D-A]DPY[Nle]Ciii-A] (Ac-ACIE[dK](Pent4ynoyl)GQYCF[dA]DPY[Nle]CA-NH2; linker 2-9-16 via TATA)	> 5	–
C#CCCC(=O)NC[C@H](NC(=O)[C@@H]1CSCCC(=O)N2CN3CN(C2)C(=O)CCSC[C@H](NC(=O)[C@H](Cc2ccc(O)cc2)NC(=O)[C@H](CCC(N)=O)NC(=O)CNC(=O)[C@H](CCC(=O)O)NC(=O)[C@H](CCC(=O)O)NC(=O)[C@H]([C@@H](C)CC)NC(=O)[C@@H](NC(=O)[C@H](C)NC(C)=O)CSCCC3=O)C(=O)N[C@@H](Cc2ccccc2)C(=O)N[C@@H](C)C(=O)N[C@@H](CC(=O)O)C(=O)N2CCC[C@H]2C(=O)N[C@@H](Cc2ccc(O)cc2)C(=O)N[C@@H](CCCC)C(=O)N1)C(N)=O [BCY7741, Ac-A-CiIEEGQYCiiFADPY(Nle)Ciii-Dap(PYA)]	–	no agonism
